Experimental data reported in article doi:10.1101/2024.04.20.590316.
Like-named read-outs stand apart in the source and are kept apart here. No constants are given. Whether binding was seen depends on the method and setting. In cells and extracts the contact can be indirect. These calls come from enrichment with a bait or labelling near it, and not all partners need be listed. For some of these results: Tags and fused reporters may be left off the sequences shown. Each block holds one molecule with its values, some of them ahead of it.

Chains of the proteins cited; added tags and fusions are not shown. Residues count along the entry.
UniProt Q13586, residues 23-685: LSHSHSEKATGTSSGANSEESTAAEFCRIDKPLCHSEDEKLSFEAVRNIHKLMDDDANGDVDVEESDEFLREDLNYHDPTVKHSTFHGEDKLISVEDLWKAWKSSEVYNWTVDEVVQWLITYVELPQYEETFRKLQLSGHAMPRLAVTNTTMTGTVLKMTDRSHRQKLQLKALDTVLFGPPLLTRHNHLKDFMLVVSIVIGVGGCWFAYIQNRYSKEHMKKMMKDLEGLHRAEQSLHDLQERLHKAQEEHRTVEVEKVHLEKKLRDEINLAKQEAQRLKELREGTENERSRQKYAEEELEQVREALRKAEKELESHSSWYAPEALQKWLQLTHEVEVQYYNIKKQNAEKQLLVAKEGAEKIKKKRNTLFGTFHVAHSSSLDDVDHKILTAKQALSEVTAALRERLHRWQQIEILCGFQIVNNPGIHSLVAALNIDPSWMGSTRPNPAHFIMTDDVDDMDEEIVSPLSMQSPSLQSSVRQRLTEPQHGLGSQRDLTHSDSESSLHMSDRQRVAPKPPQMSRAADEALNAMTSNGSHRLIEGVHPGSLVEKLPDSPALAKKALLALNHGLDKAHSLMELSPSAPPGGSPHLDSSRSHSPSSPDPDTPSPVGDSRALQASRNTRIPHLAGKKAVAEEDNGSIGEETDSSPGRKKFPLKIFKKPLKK
UniProt Q9P246, residues 15-746: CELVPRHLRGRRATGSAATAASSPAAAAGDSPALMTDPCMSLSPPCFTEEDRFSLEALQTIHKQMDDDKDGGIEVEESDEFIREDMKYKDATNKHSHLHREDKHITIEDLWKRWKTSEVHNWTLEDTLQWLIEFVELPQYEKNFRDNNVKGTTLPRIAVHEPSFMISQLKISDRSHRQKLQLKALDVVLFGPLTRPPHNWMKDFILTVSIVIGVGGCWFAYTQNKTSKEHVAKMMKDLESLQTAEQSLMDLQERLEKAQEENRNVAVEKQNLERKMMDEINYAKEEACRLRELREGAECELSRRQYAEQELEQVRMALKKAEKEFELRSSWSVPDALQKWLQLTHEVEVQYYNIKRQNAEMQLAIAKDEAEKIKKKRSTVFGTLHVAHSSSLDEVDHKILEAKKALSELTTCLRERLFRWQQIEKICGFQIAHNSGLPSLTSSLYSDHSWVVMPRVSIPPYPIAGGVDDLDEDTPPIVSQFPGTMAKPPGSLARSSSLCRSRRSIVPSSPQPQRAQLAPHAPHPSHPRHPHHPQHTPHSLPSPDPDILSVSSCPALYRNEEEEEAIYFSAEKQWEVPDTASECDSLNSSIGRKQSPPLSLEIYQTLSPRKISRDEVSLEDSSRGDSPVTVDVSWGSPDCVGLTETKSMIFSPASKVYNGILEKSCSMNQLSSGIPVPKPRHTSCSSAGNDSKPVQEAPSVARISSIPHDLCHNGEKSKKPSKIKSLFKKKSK
UniProt P07237, residues 18-508: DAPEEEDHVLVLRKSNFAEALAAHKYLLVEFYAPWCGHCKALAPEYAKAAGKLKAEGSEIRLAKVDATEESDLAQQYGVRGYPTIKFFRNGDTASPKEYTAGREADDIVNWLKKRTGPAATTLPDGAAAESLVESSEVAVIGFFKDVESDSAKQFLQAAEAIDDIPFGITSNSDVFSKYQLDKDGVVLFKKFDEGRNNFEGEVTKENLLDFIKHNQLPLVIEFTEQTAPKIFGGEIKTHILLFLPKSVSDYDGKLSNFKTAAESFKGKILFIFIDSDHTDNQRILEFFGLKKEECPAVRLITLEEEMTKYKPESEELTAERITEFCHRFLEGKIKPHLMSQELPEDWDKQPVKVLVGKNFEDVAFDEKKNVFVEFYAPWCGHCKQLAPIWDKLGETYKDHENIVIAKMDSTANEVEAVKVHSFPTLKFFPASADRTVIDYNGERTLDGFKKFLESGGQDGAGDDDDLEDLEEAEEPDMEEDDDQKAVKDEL
UniProt P27773, residues 25-505: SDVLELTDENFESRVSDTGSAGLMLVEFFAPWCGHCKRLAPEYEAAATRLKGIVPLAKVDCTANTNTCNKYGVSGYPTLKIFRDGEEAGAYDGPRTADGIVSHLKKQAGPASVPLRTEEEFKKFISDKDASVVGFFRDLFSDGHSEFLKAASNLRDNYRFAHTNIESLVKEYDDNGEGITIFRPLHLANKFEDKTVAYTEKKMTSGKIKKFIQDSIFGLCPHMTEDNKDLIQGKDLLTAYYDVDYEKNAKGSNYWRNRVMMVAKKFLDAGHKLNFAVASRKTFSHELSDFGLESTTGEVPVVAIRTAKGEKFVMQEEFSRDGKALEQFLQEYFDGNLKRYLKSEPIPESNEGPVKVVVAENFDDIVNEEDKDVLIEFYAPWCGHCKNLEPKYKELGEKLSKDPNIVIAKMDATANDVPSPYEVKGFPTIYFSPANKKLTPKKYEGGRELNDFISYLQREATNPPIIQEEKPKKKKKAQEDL
UniProt O08795, residues 15-521: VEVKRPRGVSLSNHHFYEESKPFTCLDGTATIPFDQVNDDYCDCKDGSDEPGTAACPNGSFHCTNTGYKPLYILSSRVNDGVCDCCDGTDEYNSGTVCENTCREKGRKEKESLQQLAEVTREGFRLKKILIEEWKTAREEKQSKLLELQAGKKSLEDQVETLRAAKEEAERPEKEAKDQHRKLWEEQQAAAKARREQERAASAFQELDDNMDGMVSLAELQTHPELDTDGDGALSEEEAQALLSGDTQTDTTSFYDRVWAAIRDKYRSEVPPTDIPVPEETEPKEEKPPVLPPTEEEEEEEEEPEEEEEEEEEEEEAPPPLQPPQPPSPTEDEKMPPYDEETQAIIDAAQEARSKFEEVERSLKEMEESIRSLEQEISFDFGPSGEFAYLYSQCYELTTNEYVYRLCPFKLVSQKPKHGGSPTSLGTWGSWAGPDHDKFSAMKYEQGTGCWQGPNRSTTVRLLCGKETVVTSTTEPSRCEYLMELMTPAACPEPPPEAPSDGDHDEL
UniProt P09103, residues 20-509: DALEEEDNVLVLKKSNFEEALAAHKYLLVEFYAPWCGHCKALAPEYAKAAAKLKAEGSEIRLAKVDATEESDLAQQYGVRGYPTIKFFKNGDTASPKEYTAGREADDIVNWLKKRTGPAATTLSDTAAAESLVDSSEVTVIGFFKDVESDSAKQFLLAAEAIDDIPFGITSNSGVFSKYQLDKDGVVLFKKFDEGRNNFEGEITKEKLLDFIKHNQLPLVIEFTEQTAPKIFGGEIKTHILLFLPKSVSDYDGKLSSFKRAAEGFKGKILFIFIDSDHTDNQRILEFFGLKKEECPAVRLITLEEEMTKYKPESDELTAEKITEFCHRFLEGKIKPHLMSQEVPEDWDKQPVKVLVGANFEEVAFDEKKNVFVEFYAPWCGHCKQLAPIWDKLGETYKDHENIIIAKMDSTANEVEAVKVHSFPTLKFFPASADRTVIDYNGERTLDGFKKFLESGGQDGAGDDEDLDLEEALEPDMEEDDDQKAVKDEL
UniProt P14314, residues 15-528: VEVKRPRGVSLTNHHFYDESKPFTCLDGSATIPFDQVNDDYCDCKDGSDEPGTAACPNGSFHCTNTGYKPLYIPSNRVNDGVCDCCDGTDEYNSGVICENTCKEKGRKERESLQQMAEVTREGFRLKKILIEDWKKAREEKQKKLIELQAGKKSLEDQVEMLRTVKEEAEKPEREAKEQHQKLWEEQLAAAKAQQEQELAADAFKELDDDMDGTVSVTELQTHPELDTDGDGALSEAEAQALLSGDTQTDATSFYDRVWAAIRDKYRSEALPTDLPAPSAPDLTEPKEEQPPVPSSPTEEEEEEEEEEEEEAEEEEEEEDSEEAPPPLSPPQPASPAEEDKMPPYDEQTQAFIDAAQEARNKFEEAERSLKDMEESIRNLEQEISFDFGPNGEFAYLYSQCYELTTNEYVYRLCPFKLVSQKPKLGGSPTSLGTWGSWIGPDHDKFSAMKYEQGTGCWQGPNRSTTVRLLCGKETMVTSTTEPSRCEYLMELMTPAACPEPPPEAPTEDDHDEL
UniProt Q8NBS9, residues 33-432: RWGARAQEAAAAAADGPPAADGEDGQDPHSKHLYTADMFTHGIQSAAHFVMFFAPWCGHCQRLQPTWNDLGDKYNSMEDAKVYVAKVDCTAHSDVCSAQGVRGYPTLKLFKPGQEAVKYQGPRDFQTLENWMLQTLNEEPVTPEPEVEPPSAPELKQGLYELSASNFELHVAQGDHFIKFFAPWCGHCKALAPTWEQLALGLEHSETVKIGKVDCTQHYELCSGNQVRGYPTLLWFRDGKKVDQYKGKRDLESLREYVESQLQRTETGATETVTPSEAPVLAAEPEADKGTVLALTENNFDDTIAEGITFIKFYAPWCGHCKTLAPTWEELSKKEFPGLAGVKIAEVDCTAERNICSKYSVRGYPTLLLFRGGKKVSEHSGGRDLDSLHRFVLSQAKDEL
UniProt Q91W90, residues 34-417: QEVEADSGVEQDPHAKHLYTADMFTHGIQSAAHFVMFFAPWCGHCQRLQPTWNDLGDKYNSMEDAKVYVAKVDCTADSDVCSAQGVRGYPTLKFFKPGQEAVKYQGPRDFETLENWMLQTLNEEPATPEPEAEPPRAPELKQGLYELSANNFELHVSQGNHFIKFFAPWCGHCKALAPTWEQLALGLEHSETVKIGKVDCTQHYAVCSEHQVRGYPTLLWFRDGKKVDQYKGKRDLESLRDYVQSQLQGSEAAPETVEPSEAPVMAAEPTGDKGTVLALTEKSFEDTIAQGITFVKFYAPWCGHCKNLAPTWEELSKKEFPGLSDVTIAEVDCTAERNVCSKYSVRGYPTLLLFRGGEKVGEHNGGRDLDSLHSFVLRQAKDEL
UniProt Q9NYU2, residues 43-1555: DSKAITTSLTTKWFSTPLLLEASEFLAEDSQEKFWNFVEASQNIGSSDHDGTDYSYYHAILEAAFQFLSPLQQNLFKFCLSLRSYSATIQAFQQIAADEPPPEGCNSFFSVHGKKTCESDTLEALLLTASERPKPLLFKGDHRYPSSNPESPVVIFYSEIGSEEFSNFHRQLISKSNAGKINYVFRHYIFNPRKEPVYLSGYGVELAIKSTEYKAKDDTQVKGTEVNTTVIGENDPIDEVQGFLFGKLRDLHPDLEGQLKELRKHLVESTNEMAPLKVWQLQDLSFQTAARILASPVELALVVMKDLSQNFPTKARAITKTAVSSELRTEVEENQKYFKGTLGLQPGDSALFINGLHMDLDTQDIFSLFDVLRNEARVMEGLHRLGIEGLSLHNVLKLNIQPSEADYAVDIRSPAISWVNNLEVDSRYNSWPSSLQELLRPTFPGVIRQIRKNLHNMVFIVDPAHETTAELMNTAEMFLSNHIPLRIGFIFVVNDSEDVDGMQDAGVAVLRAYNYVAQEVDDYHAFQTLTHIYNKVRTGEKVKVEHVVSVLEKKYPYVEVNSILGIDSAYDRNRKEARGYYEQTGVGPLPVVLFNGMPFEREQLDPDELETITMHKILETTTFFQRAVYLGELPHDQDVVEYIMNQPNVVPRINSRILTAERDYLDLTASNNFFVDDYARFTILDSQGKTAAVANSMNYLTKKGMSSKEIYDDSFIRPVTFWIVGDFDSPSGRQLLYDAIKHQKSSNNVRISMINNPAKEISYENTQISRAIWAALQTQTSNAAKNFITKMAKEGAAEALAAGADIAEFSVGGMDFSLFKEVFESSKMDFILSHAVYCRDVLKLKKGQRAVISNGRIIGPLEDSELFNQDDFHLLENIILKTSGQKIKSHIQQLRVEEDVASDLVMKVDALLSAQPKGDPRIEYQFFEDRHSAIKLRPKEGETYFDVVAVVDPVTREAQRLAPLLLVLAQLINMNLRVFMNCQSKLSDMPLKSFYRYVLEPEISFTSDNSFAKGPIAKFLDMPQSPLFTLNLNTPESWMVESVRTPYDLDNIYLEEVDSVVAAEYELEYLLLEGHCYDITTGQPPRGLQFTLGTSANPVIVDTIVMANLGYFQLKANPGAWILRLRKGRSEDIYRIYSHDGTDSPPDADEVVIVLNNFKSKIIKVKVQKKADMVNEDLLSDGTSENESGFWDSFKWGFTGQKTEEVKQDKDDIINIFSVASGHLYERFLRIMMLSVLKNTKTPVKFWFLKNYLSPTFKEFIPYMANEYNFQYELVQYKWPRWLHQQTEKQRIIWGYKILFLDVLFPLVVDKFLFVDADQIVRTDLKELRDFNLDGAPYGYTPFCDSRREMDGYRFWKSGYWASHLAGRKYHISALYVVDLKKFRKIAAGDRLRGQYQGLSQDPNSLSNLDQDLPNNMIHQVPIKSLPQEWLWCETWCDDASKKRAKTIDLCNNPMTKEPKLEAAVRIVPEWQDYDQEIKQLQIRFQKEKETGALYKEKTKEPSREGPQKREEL

How the values were obtained:
Assay in all cases: proximity labelling
miniTurbo-STIM1-YFP [1] = molecular target: miniTurbo-STIM1-YFP (UniProt Q13586)
miniTurbo-STIM2-YFP [2] = molecular target: miniTurbo-STIM2-YFP (UniProt Q9P246)
miniTurbo-STIM1-YFP [3] = molecular target: miniTurbo-STIM1-YFP (UniProt Q13586); remark: listed apart in the source
miniTurbo-STIM2-YFP [4] = molecular target: miniTurbo-STIM2-YFP (UniProt Q9P246); remark: listed apart in the source

Molecule: P4HB, endogenous in HEK293 (from UniProt P07237 18-508) (enzyme)
binding (miniTurbo-STIM1-YFP [1]): binds

Molecule: PDIA3 (also known as ERp57), endogenous in Neuro-2A (from UniProt P27773 25-505) (enzyme)
binding (miniTurbo-STIM2-YFP [2]): binds

Molecule: PRKCSH (the beta-subunit of glucosidase II), endogenous in Neuro-2A (from UniProt O08795 15-521)
binding (miniTurbo-STIM2-YFP [2]): binds

B1: GANAB (the alpha subunit of glucosidase II), endogenous in HEK293 (enzyme, UniProt Q14697 29-944)
chain: ITLAVDRSNFKTCEESSFCKRQRSIRPGLSPYRALLDSLQLGPDSLTVHLIHEVTKVLLVLELQGLQKNMTRFRIDELEPRRPRYRVPDVLVADPPIARLSVSGRDENSVELTMAEGPYKIILTARPFRLDLLEDRSLLLSVNARGLLEFEHQRAPRVSQGSKDPAEGDGAQPEETPRDGDKPEETQGKAEKDEPGAWEETFKTHSDSKPYGPMSVGLDFSLPGMEHVYGIPEHADNLRLKVTEGGEPYRLYNLDVFQYELYNPMALYGSVPVLLAHNPHRDLGIFWLNAAETWVDISSNTAGKTLFGKMMDYLQGSGETPQTDVRWMSETGIIDVFLLLGPSISDVFRQYASLTGTQALPPLFSLGYHQSRWNYRDEADVLEVDQGFDDHNLPCDVIWLDIEHADGKRYFTWDPSRFPQPRTMLERLASKRRKLVAIVDPHIKVDSGYRVHEELRNLGLYVKTRDGSDYEGWCWPGSAGYPDFTNPTMRAWWANMFSYDNYEGSAPNLFVWNDMNEPSVFNGPEVTMLKDAQHYGGWEHRDVHNIYGLYVHMATADGLRQRSGGMERPFVLARAFFAGSQRFGAVWTGDNTAEWDHLKISIPMCLSLGLVGLSFCGADVGGFFKNPEPELLVRWYQMGAYQPFFRAHAHLDTGRREPWLLPSQHNDIIRDALGQRYSLLPFWYTLLYQAHREGIPVMRPLWVQYPQDVTTFNIDDQYLLGDALLVHPVSDSGAHGVQVYLPGQGEVWYDIQSYQKHHGPQTLYLPVTLSSIPVFQRGGTIVPRWMRVRRSSECMKDDPITLFVALSPQGTAQGELFLDDGHTFNYQTRQEFLLRRFSFSGNTLVSSSADPEGHFETPIWIERVVIIGAGKPAAVVLQTKGSPESRLSFQHDPETSVLVLRKPGINVASDWSIHLR
modifications: biotin (added by miniTurbo in the cells; residues not stated)
binding (miniTurbo-STIM1-YFP [3]): binds

B2: GANAB (the alpha subunit of glucosidase II), endogenous in Neuro-2A (enzyme, UniProt Q8BHN3 33-944)
chain: VDRSNFKTCDESSFCKRQRSIRPGLSPYRALLDTLQLGPDALTVHLIHEVTKVLLVLELQGLQKNMTRIRIDELEPRRPRYRVPDVLVADPPTARLSVSGRDDNSVELTVAEGPYKIILTAQPFRLDLLEDRSLLLSVNARGLMAFEHQRAPRVPQESKDPAEGNGAQPEATPGDGDKPEETQEKAEKDEPGAWEETFKTHSDSKPYGPTSVGLDFSLPGMEHVYGIPEHADSLRLKVTEGGEPYRLYNLDVFQYELNNPMALYGSVPVLLAHSFHRDLGIFWLNAAETWVDISSNTAGKTLFGKMLDYLQGSGETPQTDIRWMSESGIIDVFLMLGPSVFDVFRQYASLTGTQALPPLFSLGYHQSRWNYRDEADVLEVDQGFDDHNMPCDVIWLDIEHADGKRYFTWDPTRFPQPLNMLEHLASKRRKLVAIVDPHIKVDSGYRVHEELRNHGLYVKTRDGSDYEGWCWPGSASYPDFTNPRMRAWWSNMFSFDNYEGSAPNLYVWNDMNEPSVFNGPEVTMLKDAVHYGGWEHRDIHNIYGLYVHMATADGLIQRSGGIERPFVLSRAFFSGSQRFGAVWTGDNTAEWDHLKISIPMCLSLALVGLSFCGADVGGFFKNPEPELLVRWYQMGAYQPFFRAHAHLDTGRREPWLLASQYQDAIRDALFQRYSLLPFWYTLFYQAHKEGFPVMRPLWVQYPEDMSTFSIEDQFMLGDALLIHPVSDAGAHGVQVYLPGQEEVWYDIQSYQKHHGPQTLYLPVTLSSIPVFQRGGTIVPRWMRVRRSSDCMKDDPITLFVALSPQGTAQGELFLDDGHTFNYQTRHEFLLRRFSFSGSTLVSSSADPKGHLETPIWIERVVIMGAGKPAAVVLQTKGSPESRLSFQHDPETSVLILRKPGVSVASDWSIHLR
modifications: biotin (added by miniTurbo in the cells; residues not stated)
binding (miniTurbo-STIM2-YFP [4]): binds

Further lines, results first:

binding (miniTurbo-STIM2-YFP [2]): binds
Molecule: P4HB, endogenous in Neuro-2A (from UniProt P09103 20-509) (enzyme)

binding (miniTurbo-STIM1-YFP [1]): binds
Molecule: PRKCSH (the beta-subunit of glucosidase II), endogenous in HEK293 (from UniProt P14314 15-528)

binding (miniTurbo-STIM1-YFP [1]): binds
Molecule: TXNDC5, endogenous in HEK293 (from UniProt Q8NBS9 33-432) (enzyme)

binding (miniTurbo-STIM2-YFP [2]): binds
Molecule: TXNDC5, endogenous in Neuro-2A (from UniProt Q91W90 34-417) (enzyme)

binding (miniTurbo-STIM1-YFP [1]): binds
Molecule: UGGT1, endogenous in HEK293 (from UniProt Q9NYU2 43-1555) (enzyme)
